PubChem BioAssay AID1159578 | Peter MacCallum Cancer Centre, 2015
Test: 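Genome-wide hunt for genes controlling movement of lymphatic endothelial cells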 (primary screen). Cell system: human lymphatic endothelial cells. Reagent: siRNA pool against human genes, 40 nM. Timing: 48 h after transfection. Measured: 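Cells stained with dye and imaged after a scratch; covered wound area and nuclei counted, duplicates averaged, migration set against mock wells and turned into a robust z-score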. Direction: migration robust z-score: higher = faster migration into the scratch; nuclei per well: higher = more cells in the well. Call rule: 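Pools averaging fewer than 3300 nuclei are never called; remaining pools count as changed when migration robust z lies outside -2 to 2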. Calls: active = migration changed; inactive = no migration change, or too few cells.
Here is a random part of about 18,000 reagents tested. About 1,030 of all reagents (5.7%) were called active. 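Inactive calls also include pools with fewer than 3300 nuclei, whose migration was not assessed.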 Raw values are not corrected between plates. Unmarked entries are inactive. Reagents against one gene are numbered here. Further read-outs or replicates are left out here.

gene,pool no.,migration robust z-score,migration class with cell-count check,"nuclei per well, duplicate mean"
SNX15,1,0.46,migration z between -2 and 2; enough cells,5342
KCNB2,1,-1.01,migration z between -2 and 2; enough cells,5354
RTN3,1,0.99,migration z between -2 and 2; enough cells,5832
C1orf141,1,2.12 (active),migration z above 2; enough cells,7215
HAUS6,1,0.15,migration z between -2 and 2; enough cells,5352
SLPI,1,0.8,migration z between -2 and 2; enough cells,6360
OR10W1,1,-0.9,migration z between -2 and 2; enough cells,5520
NAGK,1,-0.1,migration z between -2 and 2; enough cells,5620
TNFRSF4,1,-0.5,migration z between -2 and 2; enough cells,6606
CLDN20,1,1.12,migration z between -2 and 2; enough cells,6916
CYP27C1,1,0.8,migration z between -2 and 2; enough cells,3766
NR1D2,1,-0.32,migration z between -2 and 2; enough cells,3508
UBOX5,1,0.36,migration z between -2 and 2; enough cells,6880
ACAD10,1,-0.64,migration z between -2 and 2; enough cells,4764
OTUD4,1,0.5,migration z between -2 and 2; enough cells,7036
PCBP4,1,1.06,migration z between -2 and 2; enough cells,4752
TPSG1,1,0.42,migration z between -2 and 2; enough cells,5636
HDAC4,1,0.16,migration z between -2 and 2; enough cells,4438
RREB1,1,0.13,migration z between -2 and 2; enough cells,4673
VPS37A,1,-0.26,migration z between -2 and 2; enough cells,6445
DAGLA,1,-1.3,migration z between -2 and 2; enough cells,5612
ABHD15,1,-1.54,migration z between -2 and 2; enough cells,4543
DDI2,1,-0.08,migration z between -2 and 2; enough cells,5055
DDI2,2,1.27,migration z between -2 and 2; enough cells,4829
FAF1,1,0.45,migration z between -2 and 2; enough cells,5903
PSPC1,1,-0.58,migration z between -2 and 2; enough cells,5800
SFTPB,1,0.22,migration z between -2 and 2; enough cells,5829
PRORP,1,-0.3,migration z between -2 and 2; enough cells,5497
RUNX1,1,-1.06,migration z between -2 and 2; enough cells,4742
ZZEF1,1,0.4,migration z between -2 and 2; enough cells,5088
VAMP8,1,-1.15,migration z between -2 and 2; enough cells,5018
TRIM10,1,1.32,migration z between -2 and 2; enough cells,6243
USP48,1,1.2,migration z between -2 and 2; enough cells,5596
OR6F1,1,0.6,migration z between -2 and 2; enough cells,4684

Targets listed so far whose gene name starts with H or h (2):
gene,pool no.,migration robust z-score,migration class with cell-count check,"nuclei per well, duplicate mean"
HAUS6,1,0.15,migration z between -2 and 2; enough cells,5352
HDAC4,1,0.16,migration z between -2 and 2; enough cells,4438

More records follow.
gene,pool no.,migration robust z-score,migration class with cell-count check,"nuclei per well, duplicate mean"
FASTKD1,1,-1.86,migration z between -2 and 2; enough cells,7130
OR2D3,1,1.92,migration z between -2 and 2; enough cells,5730
ANK2,1,-0.65,migration z between -2 and 2; enough cells,5913
GNPNAT1,1,0.03,migration z between -2 and 2; enough cells,5955
ZC3H7A,1,0.05,migration z between -2 and 2; enough cells,6020
GPR84,1,-3.17 (active),migration z below -2; enough cells,5370
CWC15,1,0.15,migration z between -2 and 2; enough cells,6633
CTU1,1,0.47,migration z between -2 and 2; enough cells,5724
AFDN,1,-1.26,migration z between -2 and 2; enough cells,5520
RTL3,1,-0.43,migration z between -2 and 2; enough cells,4346
LYZL1,1,1.68,migration z between -2 and 2; enough cells,6035
MCM8,1,-1.12,migration z between -2 and 2; enough cells,5896
SGPL1,1,0.18,migration z between -2 and 2; enough cells,6392
MCRIP1,1,0.04,migration z between -2 and 2; enough cells,5872
INAVA,1,2.5 (active),migration z above 2; enough cells,5390
DCBLD2,1,-1.25,migration z between -2 and 2; enough cells,5153
MRTFB,1,-1.61,migration z between -2 and 2; enough cells,4944
S100PBP,1,1.97,migration z between -2 and 2; enough cells,6716
WFDC3,1,-0.54,migration z between -2 and 2; enough cells,5816
CERKL,1,-0.62,migration z between -2 and 2; enough cells,7213
ZMAT2,1,0.64,migration z between -2 and 2; enough cells,5690
MLKL,1,-1.14,migration z between -2 and 2; enough cells,3723
WDR83,1,-4.08,under 3300 nuclei; migration not judged,2658
